PubChem BioAssay AID504784 – Drosophila RNAi Screening Center – 2011

Aim: 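Fly genes whose silencing alters how much lipid cells keep in droplets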 (primary screen)
System: Drosophila Kc167 embryonic cells
Knock-down reagent: long dsRNA against Drosophila genes, about 250 ng dsRNA per well
Timing: 4 days
Conditions: cells fed 400 µM oleic acid bound to BSA
Detection: 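Cells imaged and segmented; ratio of lipid droplet area to nuclear area, log-transformed, then normalised as a B-score over the screen; higher means more stored lipid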
Direction: droplet/nuclear area B-score: higher = more stored lipid (overstorage)
In all, the deposit lists about 17,000 reagents; shown is an unselected part of those with a known target gene and a result. 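Each column is one replicate's B-score; the combined score over replicates was not deposited, so single values may mislead.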 Reagents against one gene are numbered here. A plus sign joins genes that one reagent is predicted to hit.

gene knocked down	dsRNA no.	droplet/nuclear area B-score, replicate 1	droplet/nuclear area B-score, replicate 2	droplet/nuclear area B-score, replicate 3
peb (pebbled)	1	0.441	1.07	
peb (pebbled)	2	-0.595	-0.0467	
PrBP (Prenyl-binding protein)	1	2.57	-1.53	
gdl-ORF39 + gdl	1	-1.18	-1.45	
twf (twinfilin)	1	0.699	6.27	
Prosbeta5R1 (Proteasome beta5 subunit-related 1)	1	1.18	1.28	
FANCI (Fanconi anemia complementation group I)	1	-0.0512	0.315	
CG31229	1	1.52	0.373	
CG18477 + CG31780	1	-1.22	-0.531	
ACXB (Adenylyl cyclase X B)	1	0.176	-0.417	
CG32225	1	0.00719	-0.745	

The list goes on, starting with the last 4 of the part before.
gene knocked down	dsRNA no.	droplet/nuclear area B-score, replicate 1	droplet/nuclear area B-score, replicate 2	droplet/nuclear area B-score, replicate 3
CG31229	1	1.52	0.373	
CG18477 + CG31780	1	-1.22	-0.531	
ACXB (Adenylyl cyclase X B)	1	0.176	-0.417	
CG32225	1	0.00719	-0.745	
alpha-Man-IIb (alpha-Mannosidase class II b)	1	-0.137	3.56	
twe (twine)	1	-1.71	-1.18	
Indy-2 + CG33934	1	-0.0176	-0.193	
Indy-2 + CG33934	2	-0.00602	-0.0292	
CG43894	1	-1.53	-1.72	
sotv + CG10731	1	-0.0176	-0.164	
sotv + CG10731	2	0.031	0.04	
CG15894	1	0.996	0.527	
CG15894	2	2.78	5.49	
cas (castor)	1	1.67	-1.71	
Bap170 (Brahma associated protein 170kD)	1	0.998	1.53	
Bap170 (Brahma associated protein 170kD)	2	0.756	-0.428	
Ran-like	1	0.503	-0.888	-0.631
Cyp304a1 (Cytochrome P450 304a1)	1	0.525	-0.498	
CG10038	1	0.799	4.71	
Cad96Cb (Cadherin 96Cb)	1	-0.0627	-0.507	
Cad96Cb (Cadherin 96Cb)	2	-1.95	-0.355	
hiw (highwire)	1	0.0275	-0.625	
hiw (highwire)	2	1.64	-0.538	
CG32719	1	0.673	-1.1	
CG13760	1	-1.04	0.17	
Ubi-p63E (Ubiquitin-63E)	1	-0.281	-1.88	
Tbp (TATA binding protein)	1	2.92	6.09	
Tbp (TATA binding protein)	2	0.0467	0.028	
